PubChem BioAssay AID504784, Drosophila RNAi Screening Center, 2011
The screen tested about 17,000 reagents; below is an unselected part of those with a known target gene and a result. 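Each column is one replicate's B-score; the combined score over replicates was not deposited, so single values may mislead.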 Further read-outs or replicates are left out here. No sequences are given here.

Screen: 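Fly genes whose silencing alters how much lipid cells keep in droplets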 (primary screen)
Cells: Drosophila Kc167 embryonic cells
Knock-down reagent: long dsRNA against Drosophila genes, about 250 ng dsRNA per well
Timing: 4 days
Conditions: cells fed 400 µM oleic acid bound to BSA
Detection: 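Microscope images give a droplet-to-nucleus area ratio, taken as log and converted to a screen-wide B-score; higher values mean greater lipid storage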
Reading the numbers: droplet/nuclear area B-score: higher = more stored lipid (overstorage)

Target gene | dsRNA | droplet/nuclear area B-score, replicate 1 | droplet/nuclear area B-score, replicate 2
natalisin (GeneID 5740700) | DRSC14966 | -0.613 | 1.83
natalisin (GeneID 5740700) | DRSC14967 | -2 | -1.69
5PtaseI (GeneID 326119) | DRSC16269 | 0.424 | 0.0247
5PtaseI (GeneID 326119) | DRSC22090 | -0.235 | -1.03
Nurf-38 (GeneID 37922) | DRSC04629 | 0.72 | -0.535
Gr9a (GeneID 318158) | DRSC22506 | 1.64 | -1.2
Mal-A8 (GeneID 35830) | DRSC07234 | -0.187 | -0.425
CG10907 (GeneID 39331) | DRSC09804 | -0.68 | -0.983
CG8326 (GeneID 32738) | DRSC20103 | 0.766 | 0.0375
Rpn13R (GeneID 31433) | DRSC18404 | 1.17 | -0.311
CG15177 (GeneID 40810) | DRSC12557 | 0.577 | 0.564
CG13833 (GeneID 42718) | DRSC14683 | -0.556 | -1.33
Edem1 (GeneID 31154) | DRSC18573 | 0.0142 | 0.674
fra (GeneID 36377) | DRSC07621 | 0.396 | 0.466
Snx16 (GeneID 37015) | DRSC06984 | -0.759 | -0.265
CG34002 (GeneID 3885644) | DRSC09512 | 0.143 | 0.917
MFS1 (GeneID 246519) | DRSC04115 | -0.106 | 0.854
Alg13 (GeneID 43443) | DRSC14864 | -0.945 | 1.78
NijC (GeneID 41568) | DRSC14851 | -1.02 | -0.171
CG14961 (GeneID 38414) | DRSC08420 | 1.52 | 1.78
Pcf11 (GeneID 36658) | DRSC05983 | 2.6 | 1.18
CHES-1-like (GeneID 31678) | DRSC18447 | 3.06 | 3.37
CG32107 (GeneID 317856) | DRSC09221 | 0.55 | 0.384
CG32017 (GeneID 317823) | DRSC17183 | -0.152 | 0.0348
Blos1 (GeneID 246439) | DRSC05970 | -0.168 | -0.529
Pdi (GeneID 39651) | DRSC11250 | -2.7 | -1.03
PolE1 (GeneID 42758) | DRSC16112 | 0.168 | 0.044
Ugt37A2 (GeneID 41573) | DRSC15861 | -0.444 | 2.05
CG4459 (GeneID 42377) | DRSC15582 | -0.156 | 0.592
CG13560 (GeneID 37758) | DRSC04198 | -0.00689 | -0.739

An excerpt taken from the entries so far, for reference:
Target gene | dsRNA | droplet/nuclear area B-score, replicate 1 | droplet/nuclear area B-score, replicate 2
Blos1 (GeneID 246439) | DRSC05970 | -0.168 | -0.529
Pdi (GeneID 39651) | DRSC11250 | -2.7 | -1.03
PolE1 (GeneID 42758) | DRSC16112 | 0.168 | 0.044
Ugt37A2 (GeneID 41573) | DRSC15861 | -0.444 | 2.05

Further reagents follow:
Target gene | dsRNA | droplet/nuclear area B-score, replicate 1 | droplet/nuclear area B-score, replicate 2
gas (GeneID 37572) | DRSC04521 | -1.89 | 3.24
Sas-4 (GeneID 40859) | DRSC12505 | -1.93 | 0.758
Reck (GeneID 39629) | DRSC10504 | -0.721 | -0.456
Reck (GeneID 39629) | DRSC10505 | -0.402 | -0.869
Cyp6a2 (GeneID 35587) | DRSC05014 | -0.284 | -0.185
TfIIEalpha (GeneID 39313) | DRSC11303 | 0.491 | 0.821
CG31122 (GeneID 42221) | DRSC14787 | -4.67 | -1.3
CG31122 (GeneID 42221) | DRSC16286 | -0.7 | 0.0684
CG31678 (GeneID 35327) | DRSC02618 | -1.63 | -1.16
CG31678 (GeneID 35327) | DRSC02619 | 1.15 | -0.268
CG10062 (GeneID 37224) | DRSC05960 | -1.44 | -0.469
CG10062 (GeneID 37224) | DRSC22535 | -1.46 | -3.39
CG15522 (GeneID 43546) | DRSC15059 | 1.45 | 0.00373
feo (GeneID 32015) | DRSC19398 | 0.394 | 0.183
Gr28a (GeneID 117348) | DRSC02290 | -0.328 | 0.096
CG32026 (GeneID 317829) | DRSC08950 | -0.521 | -0.0553
CG2267 (GeneID 43639) | DRSC15435 | -1.96 | 0.119
Trim9 (GeneID 34453) | DRSC02242 | 0.559 | 2.63
CG5001 (GeneID 33308) | DRSC00673 | 0.225 | -0.147
swi2 (GeneID 37010) | DRSC06457 | 1.22 | 0.236
stg (GeneID 43466) | DRSC17071 | 2.35 | 0.674
CG6607 (GeneID 42925) | DRSC16073 | -1.53 | -0.875
Glys (GeneID 41823) | DRSC16130 | 1.57 | 0.158
CG7448 (retired record) (GeneID 40440) | DRSC11828 | -0.791 | -1.9
CG7448 (retired record) (GeneID 40440) | DRSC22485 | -1.61 | 1.25
CG4020 (GeneID 31522) | DRSC18337 | 2.66 | 0.0141
